Measured values published in patent US11904020B2, “Bicyclic peptide ligands specific for TREM2” (Bicycle Tx Limited, priority 2021, dated 2024).
Not every detail of the peptide structures is certain; ends, links or a residue may be inferred. *1 amine or outer side, *2 acyl side, *3 side chain or, on linkers, in order; H or OH if unused. Where a SMILES comes first, the peptide text is derived from it. Bridges are numbered along the chain shown (N, C = ends). [ ]: non-standard residue; d: D form. TATA = O=C(CC[*:1])N1CN(C(=O)CC[*:2])CN(C(=O)CC[*:3])C1; hPhe = N[C@@H](CCc1ccccc1)C(=O)O

Target: T1, TREM2 receptor (Homo sapiens, UniProt Q9NZC2)
T1 construct: Both parental (TREM2 expressing) and isogenic TREM2 KO iPSC macrophages were plated; endogenous in cells; host or cells: human iPSC-derived macrophages (parental, TREM2 expressing)
T1 sequence (Q9NZC2 19-230): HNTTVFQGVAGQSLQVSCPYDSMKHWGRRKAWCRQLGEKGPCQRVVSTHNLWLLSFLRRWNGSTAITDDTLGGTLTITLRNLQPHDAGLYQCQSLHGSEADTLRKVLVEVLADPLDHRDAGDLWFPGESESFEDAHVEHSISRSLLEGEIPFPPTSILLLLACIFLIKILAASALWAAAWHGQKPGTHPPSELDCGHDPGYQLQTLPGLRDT
Experiment: pSYK Homogenous Time Resolved Fluorescence (HTRF) assay in iPSC macrophages
Format: cell-based
Conditions: 5 mins stimulation, phospho (Tyr 525/526) SYK, NB = no binding
Description: Quantitative assessment of total and phospho (Tyr 525/526) SYK was performed on iPSC macrophages using CisBio total and phospho-SYK HTRF kits (catalogue numbers 64SYKTPGG and 64SYKY525-PEG respectively). Human iPSC macrophage precursors derived from embryoid bodies were plated in 96 well plates (Perkin Elmer Cell Carrier ultra, black walled plates, #6055800) at a density of 40 k cells per well in 100 μl macrophage media (XVIVO15 (Lonza, #BE04-418F), 1% Penicillin-Streptomycin (Gibco, #15140-122), 1% GlutaMAX™ Supplement (Gibco, #35050-038), 0.1% M-CSF (Invitrogen, #PHC9501)). Cells were grown for 7 days to induce full differentiation to iPSC macrophages. Both parental (TREM2 expressing) and isogenic TREM2 KO iPSC macrophages were plated to test for specificity of peptide binding. Following differentiation, cells were stimulated for 5 mins with either the control TREM2 activating antibody (R&D systems, #AF1828), a human IgG control (R&D systems, #AB-108-C), or a 10 point CRC of bicyclic peptide (serial 2 fold dilutions from a starting concentration of 100 μM). Following stimulation the media was removed, and cells were lysed in 50 μl lysis buffer (supplied with the kit) per well. […] The plate was incubated overnight at room temperature, and the following day, […] was measured at 665 nm and 620 nm using a Pherastar FSX. […]

CC(=O)N[C@H]1CSCCC(=O)N2CN3CN(C2)C(=O)CCSC[C@H](NC(=O)[C@H](Cc2ccc(O)cc2)NC(=O)[C@H](CCC(=O)O)NC(=O)[C@H](CO)NC1=O)C(=O)N[C@@H](CCc1ccccc1)C(=O)N[C@@H](Cc1c[nH]c2ccccc12)C(=O)N1CCC[C@H]1C(=O)N[C@@H](Cc1ccccc1)C(=O)N[C@@H](Cc1ccc(O)cc1)C(=O)N[C@@H](C)C(=O)N[C@H](C(N)=O)CSCCC3=O [BCY19300, Ac-(SEQ ID NO: 31)] (Ac-CSEYC[hPhe]WPFYAC-NH2; linker 1-5-12 via TATA; C-terminus assumed)
EC50: > 10 µM
